{
  "sequences": {"note": "Sequences of proteins named here, by UniProt entry; tags and fusion partners are left off. A change or cut given only in a name is not applied to a line headed by its entry.", "UniProt Q8C5G2": "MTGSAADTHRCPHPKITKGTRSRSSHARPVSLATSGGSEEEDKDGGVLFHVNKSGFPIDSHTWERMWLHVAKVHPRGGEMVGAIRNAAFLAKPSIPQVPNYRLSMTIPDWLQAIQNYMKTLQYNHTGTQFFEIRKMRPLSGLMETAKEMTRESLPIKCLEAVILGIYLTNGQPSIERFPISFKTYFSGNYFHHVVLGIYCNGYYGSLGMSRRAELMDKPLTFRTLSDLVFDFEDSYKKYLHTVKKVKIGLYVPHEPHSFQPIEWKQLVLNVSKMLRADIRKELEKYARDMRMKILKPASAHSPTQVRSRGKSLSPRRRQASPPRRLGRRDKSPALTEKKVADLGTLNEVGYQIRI"},
  "source": "paper PMC6642083",
  "about": "“Structural basis of tubulin detyrosination by VASH2/SVBP heterodimer” (Nature Communications, 2019)",
  "key": {"[1]": {"target": "T1, SVBP_(1–66) (Mus musculus) (UniProt Q99LQ4)", "T1 sequence": "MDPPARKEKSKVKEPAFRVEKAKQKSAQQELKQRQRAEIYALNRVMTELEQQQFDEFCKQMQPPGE", "assay": "crystal structure; VASH2 1–355/SVBP 1–66 heterodimer, I3C-soaked crystals, SAD, space group C222_1, 2.5 Å; 0.1 M HEPES pH 7.0, 1 M (NH4)2SO4, 1.125 M KCl, 18 °C; both purified"}, "[2]": {"target": "T1, SVBP_(1–66) (Mus musculus)", "assay": "AUC; sedimentation velocity, 20, 40 and 70 μM VASH2 1–355/SVBP 1–66 complex, 25 mM Tris-HCl pH 8.0, 200 mM NaCl, 18 °C, c(s) model; both purified"}, "[3]": {"target": "T1, SVBP_(1–66) (Mus musculus)", "assay": "crystal structure; tail peptide (1 mM) co-crystallized with VASH2 1–355(C158A)/SVBP 1–66 (5 mg/ml), 2.5 Å; 0.1 M HEPES pH 7.0, 1 M (NH4)2SO4, 1.105 M KCl, 18 °C; both purified"}, "[4]": {"target": "VASH2_(1–355)/SVBP_(1–66) heterodimer (Mus musculus) (UniProt Q8C5G2+Q99LQ4)", "assay": "AUC; sedimentation velocity, 20, 40 and 70 μM VASH2 1–355/SVBP 1–66 complex, 25 mM Tris-HCl pH 8.0, 200 mM NaCl, 18 °C, c(s) model; both purified"}, "[5]": {"target": "T1, SVBP_(1–66) (Mus musculus)", "assay": "crystal structure; VASH2 47–355/SVBP 1–66 heterodimer, molecular replacement, 2.2 Å; 0.1 M BIS-TRIS propane pH 7.0, 2.0 M sodium formate, 18 °C; both purified"}},
  "note": "No constants are given. Whether binding was seen depends on the method and setting. Some binding calls cover weakened binding; strength is not graded here.",
  "data": [
    {"substance": "VASH2_(1–355) (from UniProt Q8C5G2 1-355) (enzyme)", "values": [
      {"measurement": "binding", "setting": "[1]", "value": "binds"},
      {"measurement": "binding", "setting": "[2]", "value": "binds"}
    ]},
    {"substance": "VASH2_(1–355)(C158A) (from UniProt Q8C5G2 1-355) (enzyme)", "values": [
      {"measurement": "binding", "setting": "[3]", "value": "binds"}
    ]},
    {"substance": "VASH2_(1–355)/SVBP_(1–66) heterodimer (from UniProt Q8C5G2 1-355; Q99LQ4 1-66) (complex)", "values": [
      {"measurement": "binding", "setting": "[4]", "value": "no binding (tested: 20–70 μM)"}
    ]},
    {"substance": "VASH2_(47–355) (from UniProt Q8C5G2 47-355) (domain or fragment)", "values": [
      {"measurement": "binding", "setting": "[5]", "value": "binds"}
    ]}
  ]
}
